Results from patent EP0996436B1, “PHARMACEUTICAL FORMULATIONS CONTAINING POORLY SOLUBLE DRUG SUBSTANCES” (Sanofi-Aventis, priority 1997, dated 1998).

Details: 0.01 M phosphate buffer pH=6, 1000 ml, 50 RPM, 50 mg active, 37°C, 3 capsules/formulation

% Dissolved at 30 minutes: 57.1 +/- 18.5%
Structure (SMILES): COc1ccc2cc([C@H](C)C(=O)O)ccc2c1 [Naproxyn, (S)-6-methoxy-α-methyl-2-naphthaleneacetic acid]
